For at least one entry, the source does not settle the construct or the ends of the probe. No signal at the amounts used counts as a negative. At least one verdict rests on a figure or table, not on a statement of the authors. Tags and fusion partners may be left off the protein sequences shown.
Biological target: T1, F-CphI (cyanophage S-PM2) (UniProt Q7Y4H4)
T1 sequence (looked up, limits assumed): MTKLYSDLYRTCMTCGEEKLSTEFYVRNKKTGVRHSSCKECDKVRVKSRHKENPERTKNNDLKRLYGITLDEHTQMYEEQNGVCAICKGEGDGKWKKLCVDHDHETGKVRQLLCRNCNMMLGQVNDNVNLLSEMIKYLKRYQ
Experiment: competition with a labelled probe
Conditions: 200 nM protein, 2 nM labeled N1, competitor 0-20 nM; EMSA: 10 mM Tris-HCl pH 8.0, 2% glycerol, 2 ug/ml poly-dIdC, 2 ug/ml BSA, 0.2 mM DTT, on ice 15 min, 2 nM labeled DNA; 8% native PAGE in 1X TBE; recombinant protein; label: unlabeled

## TAGACGGATGAATATTGAGGACAGAAGTTGGATTTGGTAGT (double strand) [endoV41A duplex]
  binding result: no binding
